Measured values from paper PMC12473123, “Structure–Function Insights into Quinuclidine-3-One BisQACs: Synthesis, Modulation of Bacterial Resistance, Structure–Activity Relationship, and Biological Profiling” (Pharmaceuticals, 2025).

Experiments:
RPE1 cells = assay: Cytotoxicity MTS assay; type: cell-based, human; details: IC50 RPE1 / MIC S. aureus ATCC 25923
Protocol: (§1) The cytotoxic potential of the selected drug candidates was evaluated using the CellTiter 96® AQueous One Solution Cell Proliferation Assay (Promega, Madison, WI, USA), following the manufacturer’s protocol. Human cell lines RPE1 and HEK293 were cultured at 37 °C in a humidified incubator with 5% CO2. Test compounds were dissolved in the appropriate growth medium and serially diluted across a range of concentrations in 96-well microtiter plates. Each well was seeded with 5000 cells and incubated for 48 h under standard culture conditions. Following this incubation period, 20 µL of MTS reagent was added to each well, and the plates were further incubated for 3 h to allow for color development. Absorbance was measured at 490 nm using a microplate reader to determine cell viability. Cytotoxicity was quantified as the half-maximal inhibitory concentration (IC50), defined as the concentration of compound that reduced cell viability by 50%. […] IC50 values were calculated using GraFit 6.0 software by plotting compound concentration against absorbance and fitting the data to a sigmoidal dose–response curve.

HEK293 cells = assay: Cytotoxicity MTS assay; type: cell-based, human; details: IC50 HEK293 / MIC S. aureus ATCC 25923
Protocol: as §1

SMILES	SI (IC50/MIC) RPE1 (RPE1 cells)	SI (IC50/MIC) HEK293 (HEK293 cells)
CCCCCCCCCCCCCCNC1C[N+]2(CCCCCC[N+]34CCC(CC3)C(NCCCCCCCCCCCCCC)C4)CCC1CC2 (racemic) [2(QC14)6, (±)-1,1′-(Hexane-1,6-diyl) bis(3-(tetradecylamino)quinuclidinium) dibromide]	1.61	1.11
CCCCCCCCCCCCCCCCNC1C[N+]2(CCC[N+]34CCC(CC3)C(NCCCCCCCCCCCCCCCC)C4)CCC1CC2 (racemic) [2(QC16)3, (±)-1,1′-(Propane-1,3-diyl) bis(3-(hexadecylamino)quinuclidinium) dibromide]	1.82	0.55
CCCCCCCCCCCCCCCCNC1C[N+]2(CCCC[N+]34CCC(CC3)C(NCCCCCCCCCCCCCCCC)C4)CCC1CC2 (racemic) [2(QC16)4, (±)-1,1′-(Butane-1,4-diyl) bis(3-(hexadecylamino)quinuclidinium) dibromide]	0.45	0.33
CCCCCCCCCCCCCCCCNC1C[N+]2(CCCCCC[N+]34CCC(CC3)C(NCCCCCCCCCCCCCCCC)C4)CCC1CC2 (racemic) [2(QC16)6, (±)-1,1′-(Hexane-1,6-diyl) bis(3-(hexadecylamino)quinuclidinium) dibromide]	0.56	0.78
